System: P-gp
Conditions: rifampicin pretreatment

What does the source list for CC(C)(C(=O)O)c1ccc(C(O)CCCN2CCC(C(O)(c3ccccc3)c3ccccc3)CC2)cc1 (centres unmarked) [fexofenadine]?
AUC2,3,6 decrease (DBS): 48%; AUClast decrease (plasma): 51%
